Measurements as given in the supplement of paper PMC3334620.
In all, about 33,000 sequences were measured (“E-score (-0.5 to 0.5)”: median about -0.0059, highest 2% from about 0.26 on). Some of the results follow.

molecular target: T1, Cin5 (UniProt P40917); assay: PBM E-score (8-mer binding enrichment) (E-score (-0.5 to 0.5)); higher = stronger / more preferred TF binding; details: protein concentration: 100 nM; construct: GST-full length
T1 sequence: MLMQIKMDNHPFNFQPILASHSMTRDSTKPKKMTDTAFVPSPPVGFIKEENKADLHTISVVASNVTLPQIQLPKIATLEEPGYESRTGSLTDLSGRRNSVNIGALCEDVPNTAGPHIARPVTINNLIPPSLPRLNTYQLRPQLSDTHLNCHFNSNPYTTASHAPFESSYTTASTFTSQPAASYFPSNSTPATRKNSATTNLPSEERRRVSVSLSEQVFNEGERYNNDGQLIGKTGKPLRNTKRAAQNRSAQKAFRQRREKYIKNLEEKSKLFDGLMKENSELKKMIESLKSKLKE
Outline: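 GST-tagged yeast TFs (full-length or DNA-binding domain) were made by PURExpress in vitro transcription/translation and applied at about 100-200 nM to universal all-10-mer Agilent arrays. The arrays were made double-stranded by primer extension, on fresh or once-stripped slides. Bound protein was detected with fluorescent anti-GST, and scans were normalised with masliner. Each ungapped eight-base word, pooled with its reverse complement, received an E-score (modified Wilcoxon-Mann-Whitney statistic) from the Universal PBM Analysis Suite.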

| Sequence | PBM E-score |
| --- | --- |
| GAAGCCGC | 0.00485 |
| GACTGCTC | -0.083 |
| ATGTATCA | 0.176 |
| AAAATGTT | 0.035 |
| GTAAATCA | 0.284 |
| GCTGGACC | -0.181 |
| GAGTAATC | 0.139 |
| AGAATCAG | 0.17 |
| AGTGCTCC | -0.236 |
| CGAACCAC | -0.0183 |
| AACCGATT | 0.121 |
| AGACTACG | -0.272 |
| GAGGCTCA | -0.263 |
| AAATATAG | 0.224 |
| GCATACAC | -0.0109 |
| CATTTTGA | -0.0425 |
| CGACCCCG | -0.263 |
| CGCTTAAA | 0.117 |
| TAAGGATA | 0.117 |
| ATTATTCA | 0.262 |
| CTCCCAGC | -0.133 |
| CCTTTATC | -0.176 |
| TAAGTGTA | -0.0251 |
| GCTGGGAA | -0.0863 |
| ATCTCTCA | 0.216 |

| Sequence | PBM E-score |
| --- | --- |
| CGTAACGA | 0.00356 |
| CGTTCGCA | -0.084 |
| CCGGGTAG | -0.0422 |
| ACTGCGGC | -0.0794 |
| TTAGCCAA | 0.0774 |
| TAACAGAA | 0.0994 |
| CGCACCCC | -0.0847 |
| CGGTTGCC | -0.0162 |
| TATCTTCA | 0.0305 |
| CGGAATAG | 0.173 |
| GAGAGAAC | -0.0169 |
| CGCAGGGC | -0.0642 |
| ACTGGAAT | 0.122 |
| AATGTTAG | 0.00305 |
| GCTCCTGA | -0.0807 |
| CACAAGCG | -0.0171 |
| AATCAATG | 0.202 |
| GGTGCTAA | -0.0169 |
| GTGTGAGA | -0.0466 |
| AATCTACG | 0.0253 |
| CACAACTA | 0.211 |
| ATGGTTGA | 0.158 |
| ACGGCCAC | -0.0405 |
| AATTCAGG | 0.145 |
| CGCGTGGC | -0.243 |

| Sequence | PBM E-score |
| --- | --- |
| CTCACAAA | 0.108 |
| CAGTGTAC | -0.11 |
| TAACAATA | 0.273 |
| CCTCTACA | -0.153 |
| AAAGTTGA | -0.0751 |
| ATGTTTGG | 0.0566 |
| CCAACAAC | -0.041 |
| AAGCGCCG | -0.0615 |
| GATCTTGA | 0.0786 |
| GGACGAAA | 0.0216 |
| TAAAAGCA | 0.0338 |
| AGAATAAT | 0.211 |
| TCTTGGAA | 0.0135 |
| AGGCCACC | -0.0394 |
| AGGCTCAC | -0.12 |
| GACCCCCC | -0.46 |
| ATACTTCG | 0.129 |
| CTTCGGAA | 0.152 |
| CACTTAAA | 0.0467 |
| AGCATTTC | 0.092 |
| GTGGGTTA | -0.0483 |
| CATAATAC | 0.22 |
| TCAAAGAA | -0.15 |
| CAGATATG | 0.161 |
| ATTCTAGC | -0.0844 |

| Sequence | PBM E-score |
| --- | --- |
| GAAGGGTA | 0.021 |
| GCCATGCC | -0.0136 |
| GCATTGGA | 0.0591 |
| ATACTAAT | 0.156 |
| AATCCCAC | -0.0232 |
| GCTCCAGA | -0.182 |
| CCCCAGCC | -0.121 |
| CGTCGCCC | -0.253 |
| ATGTGGGC | 0.103 |
| CATTACGC | 0.0481 |
| ACGGACGG | -0.0205 |
| CGATAGGA | -0.0522 |
| CACAGCTA | -0.081 |
| AAGCGATG | -0.0376 |
| GAAAACAA | 0.163 |
| TGGGCCAA | -0.136 |
| GGAGATTA | 0.0317 |
| CAAGATAC | 0.0195 |
| CAGGTGGG | -0.0107 |
| ATAAGCAT | 0.118 |
| ATGTATAA | 0.248 |
| ATGGAAGA | 0.0345 |
| TGAACGCA | 0.0549 |
| CGGTGATC | -0.209 |
| AATCTTCG | 0.0754 |

| Sequence | PBM E-score |
| --- | --- |
| CTATCTCC | 0.148 |
| AGCCGACA | -0.106 |
| AGCGACAC | -0.00713 |
| AACTGTCG | -0.058 |
| ACGGCTGA | 0.0312 |
| AATCCTCC | -0.144 |
| CCTTCTTC | -0.107 |
| GAGCCCCC | -0.384 |
| CCTTGCTA | 0.0914 |
| CAAGCGGA | -0.0401 |
| ACGGCTCT | -0.168 |
| ATCCCCGA | 0.00677 |
| CAATAAGA | 0.143 |
| ATACTTCA | 0.129 |
| ATCTTAAA | 0.146 |
| CCTCATTA | 0.237 |
| TCGCCAAA | -0.00891 |
| ATTTGCTG | 0.153 |
| AGTTCTCG | 0.182 |
| AATATCAC | 0.204 |
| AAGTCAAC | 0.0456 |
| CAGCGACC | -0.239 |
| AAAGGCAT | 0.0014 |
| CTGCGATC | -0.0989 |
| AGCTGAGC | -0.133 |

| Sequence | PBM E-score |
| --- | --- |
| GGAGGCGA | -0.187 |
| AATCCTTG | 0.158 |
| AACGCCCC | -0.0624 |
| ATCAGAAA | 0.0234 |
| ATTCTCAG | 0.00598 |
| AATAGGGC | -0.197 |
| ACTTTCAT | 0.0836 |
| CAGGTGGA | -0.188 |
| TGTAACAA | 0.1 |
| CGTCTGAC | -0.0634 |
| CTAGTGAG | -0.0621 |
| CTTAACTA | 0.227 |
| ATCTTAAG | -0.00288 |
| GAAAAAGC | -0.0691 |
| ACGAAAAG | 0.0371 |
| CAACTGAC | -0.114 |
| GCTCCACA | -0.305 |
| AACACGTT | -0.0784 |
| GCAATAGA | -0.0214 |
| CTCCTTTA | -0.234 |
| AAGAAATA | 0.104 |
| ATGCTATA | -0.0146 |
| ATCACAAC | 0.0894 |
| TCTGCAAA | -0.0611 |
| AGAGCCTA | -0.133 |

| Sequence | PBM E-score |
| --- | --- |
| AGCGCCGA | -0.215 |
| GTACATAC | -0.00133 |
| AGAAAGTG | 0.0801 |
| ATGAGTAA | 0.137 |
| ATTGCATC | 0.12 |
| CTTTTCCC | -0.028 |
| AAAGTAAA | 0.171 |
| CGGTGAAA | 0.0241 |
| AAGAAGAT | 0.075 |
| GGGGCACC | -0.367 |
| ATACAATG | 0.123 |
| AATGGGAA | -0.0778 |
| AACATGGC | -0.04 |
| AATTTAGC | 0.091 |
| CACTACAA | 0.19 |
| ACGCGACG | -0.00148 |
| ACGGCGAT | 0.126 |
| AAAGTTCT | -0.0295 |
| ACATAAGT | 0.195 |
| GATTAAGC | 0.244 |
| AAACTTCA | 0.0632 |
| CTCCCCGA | -0.141 |

5 entries picked at random from those above, as already listed:

| Sequence | PBM E-score |
| --- | --- |
| AGCGCCGA | -0.215 |
| CTCCCCGA | -0.141 |
| ACGCGACG | -0.00148 |
| ACGGCGAT | 0.126 |
| ATACAATG | 0.123 |
